Reference: US20240343761A1 (priority 2021, published 2024)

Assay: general procedure: Fmoc solid-phase peptide synthesis; Wang resin (capacity 0.4-0.7 mmol/g); HATU/DIPEA; DEPBT/DIPEA for macrolactamization
Settings: whole synthesis
[1] = UPLC/MS (Waters Acquity UPLC CSH C18), scale of the general procedure 0.1 mmol
[2] = UPLC/MS (Waters Acquity UPLC CSH C18), scale 0.1 mmol
[3] = UPLC/MS (Waters Acquity UPLC CSH C18), scale 0.2 mmol

Substance | final purity (method not given) [1] [%] | isolated mass (scale 0.1 mmol) [mg] | also measured
Ac-K-F-R-R-Q-R-P-R-L-[E-H-K-K]-P-Nle-P-B1 | 100 | 3.7 | 
Ac-K-F-R-R-Q-R-P-R-L-[E-H-K-K]-P-Nle-P-B2 | 100 | 2.8 | 
Ac-K-F-R-R-Q-R-P-R-L-[E-H-K-K]-P-Nle-P-B3 | 100 | 6.7 | 
Ac-K-F-R-R-Q-R-P-R-L-[E-H-K-K]-P-Nle-P-B4 | 100 | 3.9 | 
Ac-K-F-R-R-Q-R-P-R-L-[E-H-K-K]-P-Nle-P-TyrOBn | 96 | 0.9 | 
Ac-K-F-R-R-Q-R-P-R-L-[E-H-K-K]-P-Nle-P-cypTyrOBn | 100 | 3 | 
Ac-K-F-R-R-Q-R-P-R-L-[E-H-K-K]-P-Nle-P-cypY | 94 | 2.4 | 
Ac-c[E-N-T-N-(8-aminooctanoic)-R-P-R-L-K]-H-K-G-P-Nle-P-F | 100 | 1 | 
E[Nle]PLKSRVPFP (lactam 1-5) |  | 5.6 | final purity (method not given) [2]: 97.0%
KRRE[Nle]PLHSRVPFP (lactam 1-4) |  |  | final purity (method not given) [3]: 100%; isolated mass (scale 0.2 mmol): 8.6 mg
KRRE[Nle]PLHSRV[Oic]FP (lactam 1-4) |  |  | final purity (method not given) [3]: 100%; isolated mass (scale 0.2 mmol): 5.2 mg
K[Nle]PLESRVPFP (lactam 1-5) |  | 8.9 | final purity (method not given) [2]: 98.2%
NH-c[Rx-R-L-S-AIH]-K-G-P-Nle-P-F | 98 | 0.1 | 
PEPTIDE1{[4BrBz].R.R.S.E.P.L.H.K.R.V.P.[4BrF].P}$PEPTIDE1,PEPTIDE1,5:R3-9:R3$$$V2.0 |  | 4.1 | final purity (method not given) [2]: 100%
PEPTIDE1{[AllylGly].R.L.S.[AllylGly].G.P.[Nle]}$PEPTIDE1,PEPTIDE1,1:R3-5:R3$$$V2.0 | 100 | 1.6 | 
PEPTIDE1{[AllylGly].R.L.S.[AllylGly].K.G.P.A}$PEPTIDE1,PEPTIDE1,1:R3-5:R3$$$V2.0 | 100 | 0.8 | 
PEPTIDE1{[AllylGly].R.L.S.[AllylGly].K}$PEPTIDE1,PEPTIDE1,1:R3-5:R3$$$V2.0 | 100 | 2.4 | 
PEPTIDE1{[AllylGly].R.L.S.[AllylGly].[5Ava].P.[Nle]}$PEPTIDE1,PEPTIDE1,1:R3-5:R3$$$V2.0 | 96 | 2 | final LC-MS purity [1]: 93%
PEPTIDE1{[Pyr].R.K.R.L.S.D.K.G.P.[Nle].P.F}$PEPTIDE1,PEPTIDE1,3:R3-7:R3$$$V2.0 | 100 | 4 | 

Substance | final purity (method not given) [1] [%] | isolated mass (scale 0.1 mmol) [mg] | also measured
PEPTIDE1{[Pyr].R.P.R.L.S.H.K.[AllylGly].P.[Nle].P.[D-AllylGly]}$PEPTIDE1,PEPTIDE1,9:R3-13:R3$$$V2.0 | 100 | 4.7 | 
PEPTIDE1{[Pyr].R.P.R.L.S.H.K.[D-AllylGly].P.[Nle].P.[AllylGly]}$PEPTIDE1,PEPTIDE1,9:R3-13:R3$$$V2.0 | 100 | 4.8 | 
PEPTIDE1{[Pyr].R.R.K.[Nle].P.E.H.S.R.V.P.F.P}$PEPTIDE1,PEPTIDE1,4:R3-7:R3$$$V2.0 |  |  | final purity (method not given) [3]: 96.7%; isolated mass (scale 0.2 mmol): 9.0 mg
PEPTIDE1{[Pyr].R.R.S.K.P.L.H.E.R.V.P.F.P}$PEPTIDE1,PEPTIDE1,5:R3-9:R3$$$V2.0 |  |  | final purity (method not given) [3]: 100%; isolated mass (scale 0.2 mmol): 10.7 mg
PEPTIDE1{[Pyr].[AllylGly].P.R.L.S.[AllylGly].K.G.P.[Nle].P.F}$PEPTIDE1,PEPTIDE1,2:R3-7:R3$$$V2.0 | 100 | 6.1 | 
PEPTIDE1{[Pyr].[AllylGly].P.R.[AllylGly].S.H.K.G.P.[Nle].P.F}$PEPTIDE1,PEPTIDE1,2:R3-5:R3$$$V2.0 | 100 | 18.5 | 
PEPTIDE1{[ac].K.F.R.R.Q.R.P.R.L.E.H.K.K.P.[Nle].P.[dcypTyrOBn]}$PEPTIDE1,PEPTIDE1,11:R3-14:R3$$$V2.0 | 95 | 5.1 | 
Pyr-R-R-S-[E-P-L-H-K]-R-V-P-4BrF-P |  |  | final purity (method not given) [3]: 100%; isolated mass (scale 0.2 mmol): 31 mg
Pyr-R-R-S-[E-P-L-H-K]-R-V-P-F-Hyp(OBn) |  |  | final purity (method not given) [3]: 98%; isolated mass (scale 0.2 mmol): 3.4 mg
Pyr-R-R-S-c[E-P-L-H-K]-R-V-P-F-P |  |  | final purity (method not given) [3]: 100%; isolated mass (scale 0.2 mmol): 8.9 mg
Pyr-R-hR-S-[E-P-L-H-K]-R-V-P-F-P |  |  | final purity (method not given) [3]: 98%; isolated mass (scale 0.2 mmol): 20 mg
[Nle]PEHSRKPFP (lactam 3-7) |  | 7.6 | final purity (method not given) [2]: 98.6%
[Nle]PKHSREPFP (lactam 3-7) |  | 5.1 | final purity (method not given) [2]: 100%
[Nle]PLEHRKVPFP (lactam 4-7) |  | 7.3 | final purity (method not given) [2]: 100%
[Nle]PLEHSRKVPFP (lactam 4-8) |  | 4.1 | final purity (method not given) [2]: 100%
[Nle]PLHERVKFP (lactam 5-8) |  | 8.9 | final purity (method not given) [2]: 99%
[Nle]PLHKRVEFP (lactam 5-8) |  | 10.1 | final purity (method not given) [2]: 100%
[pGlu]RRE[Nle]PKHSRVPFP (lactam 4-7) |  |  | final purity (method not given) [3]: 100%; isolated mass (scale 0.2 mmol): 7.3 mg
[pGlu]RRSEPLHKRV[Oic]FP (lactam 5-9) |  |  | final purity (method not given) [3]: 100%; isolated mass (scale 0.2 mmol): 7.2 mg

HELM strings list residues between dots; [ac] is acetyl, [am] amide, other brackets name non-standard units. Bridge positions count the residues as written; N and C are the ends. Square brackets hold non-standard residues; d marks the D form. Ends that are not written are not given here. Oic = O=C(O)[C@@H]1C[C@@H]2CCCC[C@@H]2N1; pGlu = O=C1CC[C@@H](C(=O)O)N1; Nle = CCCC[C@H](N)C(=O)O
